# This is one part of the list.
# Amino acid sequences for entries named in this document (tags omitted). A change or cut given only in a name is not applied to a line headed by its entry.
# UniProt P03923, whole entry, looked up: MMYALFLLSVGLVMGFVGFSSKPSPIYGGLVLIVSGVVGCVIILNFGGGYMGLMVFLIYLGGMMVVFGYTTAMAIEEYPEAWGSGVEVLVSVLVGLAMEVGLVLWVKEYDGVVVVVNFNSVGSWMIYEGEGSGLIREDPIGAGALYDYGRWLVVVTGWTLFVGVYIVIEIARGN
# UniProt P46199: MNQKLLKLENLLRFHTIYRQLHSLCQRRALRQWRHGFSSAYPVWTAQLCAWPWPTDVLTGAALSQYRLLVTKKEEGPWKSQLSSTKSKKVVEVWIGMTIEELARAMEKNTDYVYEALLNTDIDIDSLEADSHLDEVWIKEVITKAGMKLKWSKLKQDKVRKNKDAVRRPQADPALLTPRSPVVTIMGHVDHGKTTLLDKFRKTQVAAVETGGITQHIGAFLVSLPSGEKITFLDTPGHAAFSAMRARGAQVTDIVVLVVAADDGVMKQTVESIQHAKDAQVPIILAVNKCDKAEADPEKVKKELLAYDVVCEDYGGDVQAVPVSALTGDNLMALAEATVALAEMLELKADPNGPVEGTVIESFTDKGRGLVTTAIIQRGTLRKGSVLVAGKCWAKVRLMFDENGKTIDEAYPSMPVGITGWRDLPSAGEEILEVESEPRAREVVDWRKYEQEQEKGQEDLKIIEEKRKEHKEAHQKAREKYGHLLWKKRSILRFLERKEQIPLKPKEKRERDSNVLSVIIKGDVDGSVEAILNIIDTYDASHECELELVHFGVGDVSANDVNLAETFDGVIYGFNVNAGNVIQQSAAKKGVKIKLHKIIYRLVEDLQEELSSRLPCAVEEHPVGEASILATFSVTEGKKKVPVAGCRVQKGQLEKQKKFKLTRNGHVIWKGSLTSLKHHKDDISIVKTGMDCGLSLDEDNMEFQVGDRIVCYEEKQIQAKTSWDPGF
# UniProt Q9H903: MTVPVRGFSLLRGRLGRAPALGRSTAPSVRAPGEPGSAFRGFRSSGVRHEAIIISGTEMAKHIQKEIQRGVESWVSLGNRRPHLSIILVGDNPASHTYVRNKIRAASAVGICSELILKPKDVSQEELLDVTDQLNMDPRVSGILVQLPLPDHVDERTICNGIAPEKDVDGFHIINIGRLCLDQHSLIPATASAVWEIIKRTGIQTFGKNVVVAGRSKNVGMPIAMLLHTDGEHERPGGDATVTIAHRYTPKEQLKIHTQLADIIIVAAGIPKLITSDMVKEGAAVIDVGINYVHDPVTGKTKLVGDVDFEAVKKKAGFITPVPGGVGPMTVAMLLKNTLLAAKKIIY
# UniProt Q9UKX2, whole entry, looked up: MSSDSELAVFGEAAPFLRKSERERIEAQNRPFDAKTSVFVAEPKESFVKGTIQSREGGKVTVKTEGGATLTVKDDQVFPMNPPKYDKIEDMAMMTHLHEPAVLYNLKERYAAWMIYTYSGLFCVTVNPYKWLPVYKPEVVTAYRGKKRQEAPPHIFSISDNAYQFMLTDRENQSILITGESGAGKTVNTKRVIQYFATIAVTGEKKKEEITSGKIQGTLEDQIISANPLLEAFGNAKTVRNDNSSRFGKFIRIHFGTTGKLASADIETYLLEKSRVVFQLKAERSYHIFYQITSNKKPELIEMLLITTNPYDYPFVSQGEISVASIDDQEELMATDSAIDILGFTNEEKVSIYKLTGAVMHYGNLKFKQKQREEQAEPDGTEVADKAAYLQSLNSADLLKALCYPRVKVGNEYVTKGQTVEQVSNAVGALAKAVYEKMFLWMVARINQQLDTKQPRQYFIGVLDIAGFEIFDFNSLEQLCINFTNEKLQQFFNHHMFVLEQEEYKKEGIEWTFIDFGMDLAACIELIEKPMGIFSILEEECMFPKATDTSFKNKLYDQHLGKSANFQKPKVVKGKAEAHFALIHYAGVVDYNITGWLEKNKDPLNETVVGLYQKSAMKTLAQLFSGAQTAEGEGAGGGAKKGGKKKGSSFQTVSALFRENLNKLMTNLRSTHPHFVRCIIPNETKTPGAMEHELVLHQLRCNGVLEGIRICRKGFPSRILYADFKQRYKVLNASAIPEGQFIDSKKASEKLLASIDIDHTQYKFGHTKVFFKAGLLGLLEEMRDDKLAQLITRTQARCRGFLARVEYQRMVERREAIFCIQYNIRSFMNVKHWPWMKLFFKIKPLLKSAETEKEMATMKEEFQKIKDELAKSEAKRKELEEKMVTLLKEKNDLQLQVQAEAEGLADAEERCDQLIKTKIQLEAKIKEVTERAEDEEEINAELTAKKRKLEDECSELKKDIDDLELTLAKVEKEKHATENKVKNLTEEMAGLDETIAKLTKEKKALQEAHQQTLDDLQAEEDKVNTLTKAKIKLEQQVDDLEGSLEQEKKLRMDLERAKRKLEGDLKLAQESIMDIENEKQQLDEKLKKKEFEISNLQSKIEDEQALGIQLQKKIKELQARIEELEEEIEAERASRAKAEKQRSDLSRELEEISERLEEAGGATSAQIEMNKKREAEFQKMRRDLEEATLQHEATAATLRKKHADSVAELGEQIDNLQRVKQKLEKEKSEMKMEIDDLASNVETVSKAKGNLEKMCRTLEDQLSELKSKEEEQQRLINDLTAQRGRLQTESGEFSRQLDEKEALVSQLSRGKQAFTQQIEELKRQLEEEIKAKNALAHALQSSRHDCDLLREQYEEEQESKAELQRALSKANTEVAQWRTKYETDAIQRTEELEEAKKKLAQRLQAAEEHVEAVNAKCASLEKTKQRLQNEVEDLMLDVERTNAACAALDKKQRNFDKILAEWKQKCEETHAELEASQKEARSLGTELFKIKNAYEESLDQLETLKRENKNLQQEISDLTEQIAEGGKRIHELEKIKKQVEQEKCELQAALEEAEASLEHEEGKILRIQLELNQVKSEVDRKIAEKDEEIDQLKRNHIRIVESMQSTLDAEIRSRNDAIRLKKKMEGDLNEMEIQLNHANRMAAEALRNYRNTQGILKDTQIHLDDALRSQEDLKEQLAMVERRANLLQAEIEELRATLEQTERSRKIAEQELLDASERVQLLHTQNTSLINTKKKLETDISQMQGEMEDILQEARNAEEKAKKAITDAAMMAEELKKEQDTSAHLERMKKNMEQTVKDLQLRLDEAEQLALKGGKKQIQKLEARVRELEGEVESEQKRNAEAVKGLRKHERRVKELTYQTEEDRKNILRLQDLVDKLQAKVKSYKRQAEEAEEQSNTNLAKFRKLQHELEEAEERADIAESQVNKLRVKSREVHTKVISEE
# UniProt P03891, whole entry, looked up: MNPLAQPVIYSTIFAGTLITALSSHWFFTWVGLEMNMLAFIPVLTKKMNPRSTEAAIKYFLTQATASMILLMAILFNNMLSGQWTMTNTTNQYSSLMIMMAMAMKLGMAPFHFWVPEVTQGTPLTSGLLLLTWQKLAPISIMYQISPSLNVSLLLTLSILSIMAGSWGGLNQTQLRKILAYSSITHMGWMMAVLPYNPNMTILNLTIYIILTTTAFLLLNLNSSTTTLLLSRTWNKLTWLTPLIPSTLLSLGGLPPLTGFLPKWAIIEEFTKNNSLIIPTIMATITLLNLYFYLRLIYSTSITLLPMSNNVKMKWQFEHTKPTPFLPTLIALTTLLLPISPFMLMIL
# UniProt Q96H55, whole entry, looked up: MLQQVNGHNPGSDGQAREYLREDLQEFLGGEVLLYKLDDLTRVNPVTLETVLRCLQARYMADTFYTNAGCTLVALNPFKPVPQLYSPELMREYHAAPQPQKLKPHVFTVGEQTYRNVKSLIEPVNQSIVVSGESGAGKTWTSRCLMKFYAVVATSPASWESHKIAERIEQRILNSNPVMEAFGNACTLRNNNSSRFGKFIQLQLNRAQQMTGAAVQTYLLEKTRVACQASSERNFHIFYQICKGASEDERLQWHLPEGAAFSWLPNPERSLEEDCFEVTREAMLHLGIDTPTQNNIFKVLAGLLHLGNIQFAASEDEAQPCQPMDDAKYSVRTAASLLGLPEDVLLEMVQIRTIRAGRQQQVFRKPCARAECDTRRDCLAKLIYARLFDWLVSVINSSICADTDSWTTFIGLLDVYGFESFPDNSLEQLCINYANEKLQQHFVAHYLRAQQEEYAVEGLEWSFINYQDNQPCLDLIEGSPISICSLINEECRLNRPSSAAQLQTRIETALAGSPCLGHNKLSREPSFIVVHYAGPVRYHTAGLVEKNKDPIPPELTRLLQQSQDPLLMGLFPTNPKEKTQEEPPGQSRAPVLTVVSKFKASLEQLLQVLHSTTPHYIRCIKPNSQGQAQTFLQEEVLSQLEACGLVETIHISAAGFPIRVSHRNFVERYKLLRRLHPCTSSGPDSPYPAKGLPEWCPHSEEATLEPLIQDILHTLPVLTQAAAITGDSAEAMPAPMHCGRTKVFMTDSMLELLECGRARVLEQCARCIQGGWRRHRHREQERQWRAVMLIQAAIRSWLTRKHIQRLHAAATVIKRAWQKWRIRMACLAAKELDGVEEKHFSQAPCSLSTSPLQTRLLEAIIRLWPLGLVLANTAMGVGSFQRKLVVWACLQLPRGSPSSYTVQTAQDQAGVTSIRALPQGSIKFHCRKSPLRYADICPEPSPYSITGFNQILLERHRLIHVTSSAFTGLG
# UniProt P11055, whole entry, looked up: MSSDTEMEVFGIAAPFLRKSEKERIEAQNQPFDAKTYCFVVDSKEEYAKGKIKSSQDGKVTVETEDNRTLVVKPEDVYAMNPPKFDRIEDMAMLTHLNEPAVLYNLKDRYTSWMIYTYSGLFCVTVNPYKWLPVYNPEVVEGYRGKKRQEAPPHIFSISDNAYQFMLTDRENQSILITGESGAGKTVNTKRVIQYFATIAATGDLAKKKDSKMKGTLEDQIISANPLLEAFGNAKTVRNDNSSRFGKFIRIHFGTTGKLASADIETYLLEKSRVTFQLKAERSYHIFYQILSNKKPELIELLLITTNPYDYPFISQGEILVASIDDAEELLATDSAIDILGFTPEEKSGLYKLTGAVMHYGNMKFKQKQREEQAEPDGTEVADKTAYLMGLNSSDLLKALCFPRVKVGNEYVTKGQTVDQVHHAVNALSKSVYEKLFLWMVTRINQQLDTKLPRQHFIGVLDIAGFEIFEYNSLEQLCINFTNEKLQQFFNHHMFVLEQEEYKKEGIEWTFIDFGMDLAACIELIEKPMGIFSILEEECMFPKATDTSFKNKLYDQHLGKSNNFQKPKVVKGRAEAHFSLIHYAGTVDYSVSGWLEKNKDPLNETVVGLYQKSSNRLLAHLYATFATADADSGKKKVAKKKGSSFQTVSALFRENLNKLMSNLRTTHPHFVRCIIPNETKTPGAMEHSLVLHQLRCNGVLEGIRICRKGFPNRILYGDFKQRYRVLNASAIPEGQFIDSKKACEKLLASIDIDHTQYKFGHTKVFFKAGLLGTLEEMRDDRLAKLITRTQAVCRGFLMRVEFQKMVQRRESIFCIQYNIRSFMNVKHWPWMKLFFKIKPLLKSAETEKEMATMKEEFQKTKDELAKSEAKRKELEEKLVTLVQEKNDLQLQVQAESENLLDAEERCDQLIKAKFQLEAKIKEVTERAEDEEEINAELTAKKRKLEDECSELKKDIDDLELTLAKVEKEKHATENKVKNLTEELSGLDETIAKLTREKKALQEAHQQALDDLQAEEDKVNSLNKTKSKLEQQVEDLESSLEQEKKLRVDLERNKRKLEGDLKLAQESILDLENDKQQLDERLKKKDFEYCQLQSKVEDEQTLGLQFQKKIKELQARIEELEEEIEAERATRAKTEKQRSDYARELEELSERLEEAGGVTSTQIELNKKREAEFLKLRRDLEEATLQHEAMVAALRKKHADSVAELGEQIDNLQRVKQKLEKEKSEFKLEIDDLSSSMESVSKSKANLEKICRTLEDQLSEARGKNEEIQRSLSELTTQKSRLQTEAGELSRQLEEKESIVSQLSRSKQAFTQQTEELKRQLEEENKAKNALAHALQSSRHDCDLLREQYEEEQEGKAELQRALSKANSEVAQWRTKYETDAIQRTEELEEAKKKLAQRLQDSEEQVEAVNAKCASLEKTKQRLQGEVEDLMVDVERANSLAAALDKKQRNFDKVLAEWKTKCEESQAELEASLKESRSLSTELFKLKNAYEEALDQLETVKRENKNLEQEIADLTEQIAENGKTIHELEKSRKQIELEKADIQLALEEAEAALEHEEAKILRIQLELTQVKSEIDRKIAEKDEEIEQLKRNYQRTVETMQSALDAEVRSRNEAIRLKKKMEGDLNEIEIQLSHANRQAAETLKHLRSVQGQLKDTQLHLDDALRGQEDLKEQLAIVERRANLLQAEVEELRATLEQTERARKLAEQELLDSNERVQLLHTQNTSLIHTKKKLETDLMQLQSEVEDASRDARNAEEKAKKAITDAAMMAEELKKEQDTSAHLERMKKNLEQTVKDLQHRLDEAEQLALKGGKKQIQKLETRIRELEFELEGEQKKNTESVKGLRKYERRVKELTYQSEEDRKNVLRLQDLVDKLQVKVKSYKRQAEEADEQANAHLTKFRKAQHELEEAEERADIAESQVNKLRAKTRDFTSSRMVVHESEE
# UniProt P03928: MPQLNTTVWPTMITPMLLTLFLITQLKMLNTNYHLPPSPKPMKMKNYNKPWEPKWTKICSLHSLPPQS
# Columns and labels:
# Assay in all cases: log2 fold change, soluble protein after heating vs DMSO (PISA); higher = thermal stabilisation; K562 cells, 10 uM, 30 min; active = over 0.2 and 3.5 SD of the protein, either way, in both replicates (recomputed)
# [1] = compound: CC1=C(C=C(C=C1)NC(=O)C2=CC(=CC=C2)C(C)(C)C#N)NC3=CC4=C(C=C3)N=CN(C4=O)C
# Method in brief: (§1)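 Soluble protein was quantified by TMTpro 16plex LC-MS/MS after channel sums were equalised. It was obtained as the supernatant after 21,000xg for 90 min from pooled aliquots of K562 cells (2×10^6 cells/mL, 10 μM compound, 30 min) heated for 3 min across 48°C-58°C and extracted in PBS with 0.5% NP-40 at 4°C. Thermal stability values are relative to control samples and come from duplicates. They are given as log2 fold changes.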
# [2] = compound: CC1=NC(=CC=C1)C2=C(N=C(N2)C(C)(C)C)C3=CC4=NC=CN=C4C=C3
# Method in brief: as §1
# [3] = compound: CCCS(=O)(=O)Nc1ccc(F)c(C(=O)c2c[nH]c3ncc(-c4ccc(Cl)cc4)cc23)c1F [vemurafenib]
# Method in brief: as §1
# [4] = compound: CCCc1cc(C)[nH]c(=O)c1CNC(=O)c1cc(-c2ccnc(N3CCN(C)CC3)c2)cc2c1cnn2C(C)C
# Method in brief: as §1
# [5] = compound: CCN(CCCOc1ccc2c(Nc3cc(CC(=O)Nc4cccc(F)c4)[nH]n3)ncnc2c1)CCOP(=O)(O)O [barasertib]
# Method in brief: as §1
# [6] = compound: CC[C@@H]1C(=O)N(C)c2cnc(Nc3ccc(C(=O)NC4CCN(C)CC4)cc3OC)nc2N1C1CCCC1
# Method in brief: as §1
# [7] = compound: CC[C@H](C)N1C=C(C2=C(C=C(C=C21)C3=CN=C(C=C3)N4CCNCC4)C(=O)NCC5=C(C=C(NC5=O)C)C)C
# Method in brief: as §1
# [8] = compound: CN(C)CC(=O)Nc1ccc2[nH]c(=O)c3ccccc3c2c1
# Method in brief: as §1
# [9] = compound: CN(CCOC1=CC=C(C=C1)C[C@H]2C(=O)NC(=O)S2)C3=CC=CC=N3 (racemic) [rosiglitazone]
# Method in brief: as §1
# [10] = compound: CN1C2=C(C3=C1C(=O)N(N=C3)CC4=CC(=CC=C4)N)SC(=C2)S(=O)C
# Method in brief: as §1
# [11] = compound: CCCCN(Cc1ccc(C(=O)NO)cc1)C(=O)Nc1ccccc1 [Nexturastat A]
# Method in brief: as §1
# [12] = compound: CCN(CC)Cc1ccc2cc(COC(=O)Nc3ccc(C(=O)NO)cc3)ccc2c1 [givinostat]
# Method in brief: as §1
# [13] = compound: CC[C@H](C)[C@@H](C(=O)N[C@@H]([C@@H](C)O)C(=O)N[C@@H](CC(C)C)C(=O)[C@]1(CO1)C)NC(=O)[C@H]([C@@H](C)CC)N(C)C(=O)C [epoxomicin]
# Method in brief: as §1
# [14] = compound: CCn1c(C(=O)N(C2CC2)C2CC2)cc2c3c(ncn3C)c(Nc3cc(C)n(C)n3)nc21
# Method in brief: as §1
# [15] = compound: CCn1cc(-c2ccnc3[nH]c(-c4cccc(CN(C)C)c4)cc23)c(-c2ccc(NC(=O)N(C)C)cc2)n1
# Method in brief: as §1
# [16] = compound: CN1CCC(CNc2ccc3ncc(-c4cccc(OC(F)(F)F)c4)n3n2)CC1
# Method in brief: as §1
# [17] = compound: CC1=C(C=C(C=C1)NC(=O)C2=CC(=CC=C2)N(C)C)NC(=O)C3=CC=C(C=C3)O
# Method in brief: as §1
# [18] = compound: CC1=CC=C(C=C1)SC2=C3C=C(SC3=CN=C2)C(=O)N
# Method in brief: as §1
# [19] = compound: CCCS(=O)(=O)Nc1ccc(F)c(C(=O)c2c[nH]c3ncc(Cl)cc23)c1F
# Method in brief: as §1
# [20] = compound: CC[C@@H]1C(=O)N(C)c2cnc(Nc3ccc(C(=O)N[C@H]4CC[C@H](N5CCN(CC6CC6)CC5)CC4)cc3OC)nc2N1C(C)C [volasertib]
# Method in brief: as §1
target,measurement,setting,value
MT-ND6 (UniProt P03923),log2 fold change,[1],inactive: 0.232
same,log2 fold change,[2],inactive: -0.175
same,log2 fold change,[3],inactive: 0.107
same,log2 fold change,[4],inactive: -0.009
same,log2 fold change,[5],inactive: 0.101
same,log2 fold change,[6],inactive: 0.046
same,log2 fold change,[7],inactive: -0.004
same,log2 fold change,[8],inactive: 0.118
same,log2 fold change,[9],inactive: -0.011
same,log2 fold change,[10],inactive: 0.218
MTIF3 (UniProt Q9H2K0),log2 fold change,[1],inactive: 0.01
same,log2 fold change,[11],inactive: 0.134
same,log2 fold change,[3],inactive: 0.071
same,log2 fold change,[12],inactive: 0
same,log2 fold change,[5],inactive: -0.305
same,log2 fold change,[7],inactive: 0.09
same,log2 fold change,[13],inactive: -0.01
same,log2 fold change,[14],inactive: 0.005
same,log2 fold change,[15],inactive: 0.012
same,log2 fold change,[8],inactive: -0.031
same,log2 fold change,[9],inactive: 0.002
same,log2 fold change,[10],inactive: 0.091
same,log2 fold change,[16],inactive: -0.02
MTIF2 (UniProt P46199),log2 fold change,[1],inactive: -0.178
same,log2 fold change,[11],inactive: 0.091
same,log2 fold change,[13],inactive: 0.043
MTHFD2L (UniProt Q9H903),log2 fold change,[1],inactive: 0.041
same,log2 fold change,[11],inactive: 0.285
same,log2 fold change,[3],inactive: 0.004
same,log2 fold change,[4],inactive: 0.171
same,log2 fold change,[13],inactive: -0.051
same,log2 fold change,[8],inactive: 0.122
same,log2 fold change,[10],inactive: 0.023
MYH2 (UniProt Q9UKX2),log2 fold change,[4],inactive: -0.059
same,log2 fold change,[5],inactive: 0.266
same,log2 fold change,[6],inactive: 0.789
same,log2 fold change,[9],inactive: 0.034
same,log2 fold change,[10],inactive: -0.159
MYBBP1A isoform 2 (UniProt Q9BQG0),log2 fold change,[17],inactive: 0.091
same,log2 fold change,[2],inactive: -0.02
same,log2 fold change,[11],inactive: 0.432
same,log2 fold change,[12],inactive: 0.277
same,log2 fold change,[5],inactive: -0.028
same,log2 fold change,[6],inactive: -0.009
same,log2 fold change,[7],inactive: -0.006
same,log2 fold change,[13],inactive: -0.194
same,log2 fold change,[14],inactive: 0.02
same,log2 fold change,[15],inactive: 0.036
same,log2 fold change,[9],inactive: -0.055
same,log2 fold change,[10],inactive: 0.077
same,log2 fold change,[16],inactive: 0.014
MSRA (UniProt Q9UJ68),log2 fold change,[18],inactive: -0.168
same,log2 fold change,[19],inactive: 0.024
same,log2 fold change,[20],inactive: -0.176
same,log2 fold change,[10],inactive: 0.095
MT-ND2 (UniProt P03891),log2 fold change,[17],inactive: 0.109
same,log2 fold change,[18],inactive: -0.047
same,log2 fold change,[2],inactive: 0.062
same,log2 fold change,[3],inactive: 0.065
same,log2 fold change,[19],inactive: 0.198
same,log2 fold change,[4],inactive: -0.123
same,log2 fold change,[12],inactive: 0.006
same,log2 fold change,[5],inactive: 0.079
same,log2 fold change,[20],inactive: -0.021
same,log2 fold change,[7],inactive: -0.113
same,log2 fold change,[15],inactive: 0.106
same,log2 fold change,[8],inactive: 0.195
same,log2 fold change,[10],inactive: -0.13
same,log2 fold change,[16],inactive: 0.033
MYO19 (UniProt Q96H55),log2 fold change,[17],inactive: 0.069
same,log2 fold change,[18],inactive: 0.091
same,log2 fold change,[2],inactive: -0.054
same,log2 fold change,[11],inactive: 0.382
same,log2 fold change,[3],inactive: -0.082
same,log2 fold change,[19],active: 0.554
same,log2 fold change,[12],inactive: 0.143
same,log2 fold change,[5],inactive: 0.039
same,log2 fold change,[20],inactive: 0.007
same,log2 fold change,[7],inactive: 0.011
same,log2 fold change,[13],inactive: 0.097
same,log2 fold change,[15],inactive: -0.215
same,log2 fold change,[8],inactive: -0.081
same,log2 fold change,[10],inactive: 0.076
same,log2 fold change,[16],inactive: 0.404
MYH3 (UniProt P11055),log2 fold change,[12],inactive: 0.03
same,log2 fold change,[5],inactive: -0.019
same,log2 fold change,[6],inactive: 0.256
same,log2 fold change,[7],inactive: -0.408
same,log2 fold change,[14],inactive: 0.218
same,log2 fold change,[15],inactive: 0.054
same,log2 fold change,[9],inactive: 0.098
same,log2 fold change,[16],inactive: -0.104
MT-ATP8 (UniProt P03928),log2 fold change,[1],inactive: 0.18
same,log2 fold change,[2],inactive: 0.142
same,log2 fold change,[11],inactive: -0.065
same,log2 fold change,[4],inactive: -0.087
same,log2 fold change,[12],inactive: -0.024
same,log2 fold change,[5],inactive: -0.03
same,log2 fold change,[6],inactive: -0.013
same,log2 fold change,[7],inactive: -0.005
same,log2 fold change,[13],inactive: 0.094
same,log2 fold change,[14],inactive: 0.015
same,log2 fold change,[15],inactive: 0.063
same,log2 fold change,[9],inactive: 0.027
same,log2 fold change,[16],inactive: 0.003

# 4 entries from above, with tabs:
target	measurement	setting	value
MT-ND2 (UniProt P03891)	log2 fold change	[15]	inactive: 0.106
same	log2 fold change	[8]	inactive: 0.195
same	log2 fold change	[10]	inactive: -0.13
same	log2 fold change	[16]	inactive: 0.033

# Three records drawn at random from the list so far, as already listed:
target,measurement,setting,value
MTIF3 (UniProt Q9H2K0),log2 fold change,[1],inactive: 0.01
MT-ND6 (UniProt P03923),log2 fold change,[2],inactive: -0.175
MT-ND2 (UniProt P03891),log2 fold change,[18],inactive: -0.047
